Experimental data as given in paper PMC7287395.
These are yes or no findings as the source states them, for the method shown. Some results given as binding are weak or reduced against the parent protein; the word gives no strength. Blank lines part the entries; values can stand above or below the molecule they belong to.

Sequences of proteins named here, by UniProt entry; tags and fusion partners are left off. Residues count along the entry.
UniProt P26718, residues 73-216: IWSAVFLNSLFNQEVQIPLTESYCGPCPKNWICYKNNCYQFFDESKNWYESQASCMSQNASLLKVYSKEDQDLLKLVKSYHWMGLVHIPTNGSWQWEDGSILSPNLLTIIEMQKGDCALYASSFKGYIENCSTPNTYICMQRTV

Molecular target: T1, human MICA*001 on B16F10-MICA*001 transductants (human) (UniProt Q29983)
T1 sequence: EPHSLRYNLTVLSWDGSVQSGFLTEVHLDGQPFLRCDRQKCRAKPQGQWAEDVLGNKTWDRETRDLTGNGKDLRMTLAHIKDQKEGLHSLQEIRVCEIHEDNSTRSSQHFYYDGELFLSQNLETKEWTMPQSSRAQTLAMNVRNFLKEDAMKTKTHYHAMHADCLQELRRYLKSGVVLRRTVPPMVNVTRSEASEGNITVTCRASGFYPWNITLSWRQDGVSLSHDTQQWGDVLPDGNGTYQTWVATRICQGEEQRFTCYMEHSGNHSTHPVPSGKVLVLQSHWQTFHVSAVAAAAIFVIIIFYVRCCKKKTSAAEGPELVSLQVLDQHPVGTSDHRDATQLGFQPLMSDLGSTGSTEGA
Assay: flow cytometry on cells; B16F10-MICA*001 and B16F10-mock transductants stained with recombinant human or mouse NKG2D ectodomains tetramerized with SA-APC; control staining with SA-conjugate only; only the binder purified

binding: binds
Molecule: soluble human NKG2D ectodomain, tetramerized with SA-APC (from UniProt P26718 73-216) (receptor)

binding: binds
B1: soluble mouse NKG2D ectodomain, tetramerized with SA-APC (receptor, UniProt O54709 90-232)
chain: FKETFQPVLCNKEVPVSSREGYCGPCPNNWICHRNNCYQFFNEEKTWNQSQASCLSQNSSLLKIYSKEEQDFLKLVKSYHWMGLVQIPANGSWQWEDGSSLSYNQLTLVEIPKGSCAVYGSSFKAYTEDCANLNTYICMKRAV
